Results on one molecule are retold here after PMC5701936.

No constants are given. Whether binding was seen depends on the method and setting. In cells and extracts the contact can be indirect. Sequences can lack the tags named with a protein.

This experiment addresses Glutathione-S-Transferase (GST). Kind of experiment: pull-down; co-precipitation of purified His6-SKD1 with GST-SPI-PBW-His6 or GST on resin; proteins dialyzed against Tris-Elution Buffer (100 mM Tris pH 8.0, 150 mM NaCl); detection with anti-His6 antibody; both purified.

B1: His6-SKD1 (protein, UniProt Q9ZNT0 1-435)
chain: MYSNFKEQAIEYVKQAVHEDNAGNYNKAFPLYMNALEYFKTHLKYEKNPKIREAITQKFTEYLRRAEEIRAVLDEGGSGPGSNGDAAVATRPKTKPKDGEGGGKDGEDPEQSKLRAGLNSAIVREKPNIKWSDVAGLESAKQALQEAVILPVKFPQFFTGKRRPWRAFLLYGPPGTGKSYLAKAVATEADSTFFSVSSSDLVSKWMGESEKLVSNLFEMARESAPSIIFVDEIDSLCGTRGEGNESEASRRIKTELLVQMQGVGHNDEKVLVLAATNTPYALDQAIRRRFDKRIYIPLPEAKARQHMFKVHLGDTPHNLTEPDFEYLGQKTEGFSGSDVSVCVKDVLFEPVRKTQDAMFFFKSPDGTWMPCGPRHPGAIQTTMQDLATKGLAEKIIPPPITRTDFEKVLARQRPTVSKSDLDVHERFTQEFGEEG
Take B1: the binding entry was “no binding”.
